Results: PubChem BioAssay (EPA / NIEHS)
Inconclusive results, whose numbers are uncertain, are shown with a selection of clear calls. Potencies beside an inconclusive call are fits to weak or partial responses and may not hold up. The source made the active and inactive calls. The calls were made as follows: active = hit-call score of the fitted dose curve at least 0.9, where 1 is the maximum; inconclusive = response in the unintended direction; inactive = score below 0.9.

Sequences of proteins named here, by UniProt entry; tags and fusion partners are left off. A change or cut given only in a name is not applied to a line headed by its entry.
UniProt Q96EB6: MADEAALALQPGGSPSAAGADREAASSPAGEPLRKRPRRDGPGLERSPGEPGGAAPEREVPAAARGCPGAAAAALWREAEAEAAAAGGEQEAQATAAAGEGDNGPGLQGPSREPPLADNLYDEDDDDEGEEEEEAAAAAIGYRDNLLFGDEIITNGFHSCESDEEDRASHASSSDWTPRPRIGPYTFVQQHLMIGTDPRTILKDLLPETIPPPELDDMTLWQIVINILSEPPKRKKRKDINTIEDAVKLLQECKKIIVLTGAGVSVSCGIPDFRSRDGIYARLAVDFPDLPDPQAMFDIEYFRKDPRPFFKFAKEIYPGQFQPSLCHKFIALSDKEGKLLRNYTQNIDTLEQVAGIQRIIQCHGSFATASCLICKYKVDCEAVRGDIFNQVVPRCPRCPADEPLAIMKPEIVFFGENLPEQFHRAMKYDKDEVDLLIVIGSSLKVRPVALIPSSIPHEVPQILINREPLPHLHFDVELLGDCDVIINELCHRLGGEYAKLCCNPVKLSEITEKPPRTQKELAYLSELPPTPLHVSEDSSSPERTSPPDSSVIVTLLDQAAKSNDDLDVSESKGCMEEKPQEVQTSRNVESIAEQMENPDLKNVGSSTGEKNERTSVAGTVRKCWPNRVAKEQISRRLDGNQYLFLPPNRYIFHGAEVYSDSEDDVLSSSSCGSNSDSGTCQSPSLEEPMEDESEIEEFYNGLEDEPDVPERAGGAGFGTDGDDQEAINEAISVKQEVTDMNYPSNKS

The molecules below were run against human Sirtuin 1 (SIRT1), SIRT1 (gene 23411) (UniProt Q96EB6) (assay: NVS_ENZ_hSIRT1: NovaScreen (NVS) Enzymatic Assay for human Sirtuin 1 (SIRT1) (AID 2283219)).
Method: NVS_ENZ_hSIRT1 is a biochemical, single-readout assay that uses extracted gene-proteins in a cell-free assay. Measurements were taken 1 hour after chemical dosing in a 384-well plate.NVS_ENZ_hSIRT1 is one of one assay component(s) measured or calculated from the NVS_ENZ_hSIRT1 assay. It is designed to make measurements of enzyme activity, a form of enzyme reporter, as detected with fluorescence intensity signals by Fluorescence and electrophoretic mobility shift technology.Data from the assay component NVS_ENZ_hSIRT1 was analyzed into 1 assay endpoint. This assay endpoint, NVS_ENZ_hSIRT1, was analyzed in the positive analysis fitting direction relative to DMSO as the negative control and baseline of activity. Using a type of enzyme reporter, loss-of-signal activity can be used to understand changes in the enzymatic activity as they relate to the gene SIRT1. Furthermore, this assay endpoint can be referred to as a primary readout, because this assay has produced multiple assay endpoints where this one serves a enzymatic activity function. To generalize the intended target to other relatable targets, this assay endpoint is annotated to the hydrolase intended target family, where the subfamily is protein deacetylase.
Binding assays used specific radioligands (tritiated, iodinated) with non-radioactive competitive displacement ligands in agonist or antagonist protocols (as indicated) and various reference compounds and inhibitors to titrate specific binding to receptors and transporters. Most enzyme assays (CYPs, kinases, phosphatases, proteases, HDACs) used recombinant protein and specific substrates (fluorescence mostly, some colorimetric and radioactive) and inhibitors, followed by a biochemical separation of substrate and product. All assays for the biochemical HTS were initially run in duplicate at a single concentration (10 uM for CYP450 assays and 25 uM for all others). Assay-chemical combinations meeting a pre-defined threshold (e.g., 30% inhibition and other criteria defined below) were then run in singleton concentration-response format with maximum concentration of 20 uM for CYPs and 50 uM for all others. Each assay was run with positive and negative controls, and concurrent controls on every plate. The follow-up (secondary) screen tested active chemical-pairs in concentration series, as well as a few additional assays not tested in the primary screen, some selected negative inactives, and several cases re-run in the concentration series for confirmatory purposes.

SMILES | AC50 | outcome
Cc1[nH]cnc1C[C@H]1CCc2c(C)c3ccccc3n2C1=O | inconclusive: 22.2 µM | 
CC1(C)NC(=O)NC1=O | inconclusive: 0.205 µM | 
O=S1(=O)CCCO1 | inconclusive: 0.0821 µM | 
CCc1cccc(CC)c1N |  | inactive
CC1=C(/C=C/C(C)=C/C=C/C(C)=C/CO)C(C)(C)CCC1 |  | inactive
Cc1cccc(Nc2cc(Cl)nc(SCC(=O)O)n2)c1C |  | inactive
Oc1ccc2c(c1)-c1ccccc1C2 |  | inactive
CC(C)c1ccc(C(=O)N=C(N)N)cc1S(C)(=O)=O | inconclusive: 1 µM | 
Nc1cccc2c(N)cccc12 |  | inactive
CC(=O)c1ccccc1 |  | inactive
CC(=O)OCCC(C)C | inconclusive: 25 µM | 
Cc1ccc(C(C)C)c(O)c1 |  | inactive
CC1(C)C(=O)N(Br)C(=O)N1Br | inconclusive: 25 µM | 
NC(N)=O |  | inactive
CCCCC(CC)COC(=O)CCCCC(=O)OCC(CC)CCCC (stereo unspecified) |  | inactive
CC(C)(C)c1cccc(C(C)(C)C)c1O | inconclusive: 6.03 µM | 
